The text below walks through data of PMC10192306.

Protein sequences, listed by entry. Tags and fused reporters are not part of them. Lines headed by an entry give the natural chain unless they say otherwise; changes in a name come on top.
UniProt Q9Y5P4: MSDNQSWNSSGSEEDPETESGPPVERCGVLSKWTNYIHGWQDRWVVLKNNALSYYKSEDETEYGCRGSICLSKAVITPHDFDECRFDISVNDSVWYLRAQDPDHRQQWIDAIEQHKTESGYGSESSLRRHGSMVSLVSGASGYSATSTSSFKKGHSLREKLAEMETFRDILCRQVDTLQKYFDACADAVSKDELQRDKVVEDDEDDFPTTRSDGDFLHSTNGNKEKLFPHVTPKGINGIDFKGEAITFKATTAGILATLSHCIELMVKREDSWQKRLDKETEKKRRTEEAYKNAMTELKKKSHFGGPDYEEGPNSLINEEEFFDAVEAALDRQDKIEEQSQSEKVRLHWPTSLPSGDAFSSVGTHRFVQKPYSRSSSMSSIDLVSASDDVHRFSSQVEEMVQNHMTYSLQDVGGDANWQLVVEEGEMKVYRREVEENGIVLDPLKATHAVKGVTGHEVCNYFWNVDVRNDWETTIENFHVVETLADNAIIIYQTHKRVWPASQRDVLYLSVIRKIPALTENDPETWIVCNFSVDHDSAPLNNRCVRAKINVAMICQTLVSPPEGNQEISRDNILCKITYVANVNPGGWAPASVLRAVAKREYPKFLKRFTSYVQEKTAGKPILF
UniProt Q9UBF8: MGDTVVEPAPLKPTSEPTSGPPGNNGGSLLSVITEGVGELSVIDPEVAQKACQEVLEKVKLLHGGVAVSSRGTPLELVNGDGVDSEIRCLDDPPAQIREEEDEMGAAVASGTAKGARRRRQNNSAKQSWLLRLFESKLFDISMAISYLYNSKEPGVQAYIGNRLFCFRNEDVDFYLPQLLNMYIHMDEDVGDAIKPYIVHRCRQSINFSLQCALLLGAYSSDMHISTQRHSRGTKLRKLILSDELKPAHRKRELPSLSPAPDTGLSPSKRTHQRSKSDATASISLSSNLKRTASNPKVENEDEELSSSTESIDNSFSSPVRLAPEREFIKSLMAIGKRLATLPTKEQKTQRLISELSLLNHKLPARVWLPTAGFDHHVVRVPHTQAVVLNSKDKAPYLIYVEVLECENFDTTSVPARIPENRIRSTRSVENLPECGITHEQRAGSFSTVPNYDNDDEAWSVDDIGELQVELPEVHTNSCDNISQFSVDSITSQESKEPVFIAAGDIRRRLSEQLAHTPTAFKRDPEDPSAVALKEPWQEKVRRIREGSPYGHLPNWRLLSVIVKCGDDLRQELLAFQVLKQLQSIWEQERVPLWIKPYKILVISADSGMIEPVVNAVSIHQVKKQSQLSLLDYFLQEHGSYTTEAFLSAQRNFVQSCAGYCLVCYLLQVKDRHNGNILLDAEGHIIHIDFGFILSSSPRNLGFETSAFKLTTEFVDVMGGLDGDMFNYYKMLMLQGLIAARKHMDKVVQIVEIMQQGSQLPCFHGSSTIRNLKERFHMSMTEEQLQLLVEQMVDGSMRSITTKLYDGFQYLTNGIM

This assay has as its target HA-CERT (UniProt Q9Y5P4). The experiment in a line: co-IP; lysates of cells stably expressing HA-C10orf76 or HA-CERT incubated with anti-HA antibody-conjugated agarose for 1 h at 4°C, washed twice; eluates immunoblotted with anti-HA, anti-PI4KB or anti-CERT antibodies. (Immunoblotting shows a protein as a band on a membrane.)

Results are given in words; binding and its absence hold for the method and conditions named. Binding seen in cells or lysates may run through a third protein.

For the substance “PI4KB (from UniProt Q9UBF8 1-816) (enzyme)”, the binding result is on record as “no binding”.
